From publication PMC9199852 come the findings set out here.

Holding throughout (assay): two-hybrid; Matchmaker Gold Yeast Two-Hybrid System, yeast strain Y2HGold; TaPR1-4 and its variants in pGBKT7 as bait, TaTLP1 in pGADT7 as prey; growth and blue colour on SD/-Trp-Leu-His-Ade with X-α-Gal and aureobasidin A
Assay [1] deals with TaPR1-4 G116A (Triticum aestivum (wheat)) (UniProt Q94F73).
Assay [2] deals with TaPR1-4 (Triticum aestivum (wheat)) (UniProt Q94F73).
Assay [3] addresses TaPR1-4 K117A (Triticum aestivum (wheat)) (UniProt Q94F73).
The target of assay [4] is TaPR1-4 A115R (Triticum aestivum (wheat)) (UniProt Q94F73).
The target in assay [5] is TaPR1-4 V118S (Triticum aestivum (wheat)) (UniProt Q94F73).
Assay [6] concerns the target CΔ113–164-TaPR1-4 (Triticum aestivum (wheat)) (UniProt Q94F73).
The target of assay [7] is CΔ143–164-TaPR1-4 (Triticum aestivum (wheat)) (UniProt Q94F73).
The target of assay [8] is CΔ128–164-TaPR1-4 (+αIV) (Triticum aestivum (wheat)) (UniProt Q94F73).
For assay [9], the target named is TaPR1-4 A114S (Triticum aestivum (wheat)) (UniProt Q94F73).
Assay [10] addresses CΔ119–164-TaPR1-4 (-αIV) (Triticum aestivum (wheat)) (UniProt Q94F73).

These are yes or no findings as the source states them, for the method shown. For some of these results: Binding can be weak; no strength is given.

As for TaTLP1 (from UniProt A0A075TS47), the binding result in assay [1] is “binds”; in assay [2] it was “binds”; in [3] it was “binds”; in assay [4], “binds”; in assay [5] it was “binds”; in assay [6], “no binding”. For the same substance, the binding entry in assay [7] is “binds”; in [8], “binds”; in assay [9], “binds”; in assay [10] it was “binds weakly”.
